Test results: patent publication US20190367611A1
No constants are given. Whether binding was seen depends on the method and setting. Some binding calls cover weakened binding; strength is not graded here.

Amino acid sequences for entries named in this document (tags omitted).
UniProt P06654: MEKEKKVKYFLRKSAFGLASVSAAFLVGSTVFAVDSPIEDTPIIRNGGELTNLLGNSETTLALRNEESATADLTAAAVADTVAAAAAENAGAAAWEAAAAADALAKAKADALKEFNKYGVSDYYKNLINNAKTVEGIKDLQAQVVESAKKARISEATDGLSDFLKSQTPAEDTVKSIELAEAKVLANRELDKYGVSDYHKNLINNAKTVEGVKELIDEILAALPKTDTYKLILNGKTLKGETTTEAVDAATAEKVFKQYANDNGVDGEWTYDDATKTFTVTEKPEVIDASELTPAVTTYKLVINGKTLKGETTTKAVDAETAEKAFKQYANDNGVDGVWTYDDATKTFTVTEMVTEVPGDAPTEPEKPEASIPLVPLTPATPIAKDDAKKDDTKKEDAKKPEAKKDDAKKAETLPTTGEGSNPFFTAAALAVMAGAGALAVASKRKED

target: protein G (UniProt P06654); experiment: semELISA on protein G

binding, binds:
mFc7.22 (from UniProt P0DOX5 233-449)
mFc7.27 (from UniProt P0DOX5 233-449)

target: protein G (UniProt P06654); experiment: semELISA on protein G-coated plates

binding, binds:
mFc3 (from UniProt P0DOX5 233-449)
mFc8 (from UniProt P0DOX5 233-449)
mFc7 (from UniProt P0DOX5 233-449)
mFc12 (from UniProt P0DOX5 233-449)
